Each structure is given as a SMILES string. Where two headings read alike, the source gives them in different places.

The record followed here is patent publication US20220288277A1, “SURFACE COATINGS AND IMPLANTABLE DEVICES COMPRISING DIMERIC STEROID PRODRUGS, AND USES THEREOF” (Ripple Therapeutics Corporation, priority 2019, published 2022).

Take `C[C@@H]1C[C@H]2[C@@H]3CCC4=CC(=O)C=C[C@]4(C)[C@@]3(F)[C@@H](O)C[C@]2(C)[C@@]1(O)C(=O)COC(=O)OCCOCCOCCOC(=O)OCC(=O)[C@@]1(O)[C@H](C)C[C@H]2[C@@H]3CCC4=CC(=O)C=C[C@]4(C)[C@@]3(F)[C@@H](O)C[C@@]21C` [Compound 1, dexamethasone-triethylene glycol-dexamethasone]: the Drug load is, setting by setting: (heat press process, 185° C. pre-melt, 1500 PSI for 30 seconds) 37.1±8.1 μg/mm^2; (spray-coating and drying, 50 mg/mL solution and 80 sprays) 7.8±1.2 μg/mm^2. In addition, the “Range of drug loadings” value (heat press, 150 C-180 C, 700-3000 PSI, 30 s-10 min) is given as 4-37 ag/mm^2. Where the note is “spray coating from acetone, substrate surface area 3-6 mm^2”, the Drug loading result is listed as “up to 120 μg”.
